Measurements reported in PubChem BioAssay AID1259308 (NCATS, 2017)

Purpose: 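Knock-downs that increase output of a recombinant reporter protein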 (primary screen)
Cells: human HEK293 embryonic kidney cells stably expressing firefly luciferase (HEK-CMV-Luc2-Hygro)
Knock-down reagent: single siRNA against human genes, 0.8 pmol siRNA per well
Duration: 72 h
Detection: 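Reporter luminescence and viable-cell signal on separate replicate plates, given as percent of non-targeting control and median/MAD z-scores, plus per-cell luciferase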
Reading the numbers: total luciferase, z-score and total luciferase, % of control: higher = more reporter protein produced; luciferase per cell, z-score: higher = more reporter output per viable cell; viable cells, % of control: higher = more viable cells
Hit rule: 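An siRNA counts as active if its total luciferase robust z-score exceeds 3; genes with two or more such siRNAs out of three were retested with fresh siRNAs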
Meaning of the calls: active = raised luciferase; inactive = no rise
The deposit covers about 59,000 reagents; shown is a part drawn at random. In the full data, about 1,510 (2.6%) got an active call. 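Calls use total luciferase alone and ignore viability, so some active siRNAs may act by altering cell number.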 A number with no mark means an inactive call. The numbers tell different reagents against one gene apart.

no.	target	reagent	total luciferase, z-score	total luciferase, % of control	luciferase per cell, z-score	viable cells, % of control
1	PNP	1	-0.0332	81.2	0.102	88.4
2	PNP	2	1.2	106	2.93	54.6
3	PNP	3	-0.537	71.2	-0.82	98.8
4	ZNF608	1	-0.983	62.3	-1.6	106
5	ZNF608	2	-0.978	62.4	-1.46	102
6	ZNF608	3	-0.546	71	-0.925	101
7	MAP7D3	1	0.0393	82.7	-0.604	108
8	MAP7D3	2	0.322	88.3	-0.0743	101
9	MAP7D3	3	-0.093	80	1.45	61.1
10	ZFP36L2	1	-0.382	74.3	0.0772	81.3
11	ZFP36L2	2	-3.12	19.8	-4.85	79.3
12	ZFP36L2	3	0.707	95.9	0.299	99.1
13	FLNB	1	-0.0463	81	-0.333	98.8
14	FLNB	2	0.00498	82	-0.238	97.5
15	FLNB	3	-0.253	76.9	-0.715	104
16	BMPR2	1	0.115	84.2	0.342	86
17	BMPR2	2	-0.522	71.5	-0.583	93.2
18	BMPR2	3	1.21	106	1.44	81
19	UBAC1	1	1.11	104	0.574	100
20	UBAC1	2	1.47	111	1.16	91.4
21	UBAC1	3	-0.276	76.4	-0.336	93.3
22	METTL3	1	-2.18	38.5	-1.96	72
23	METTL3	2	1.55	113	1.6	82.6
24	METTL3	3	-0.714	67.7	-1.04	99.5
25	RNPS1	1	-0.95	63	-0.155	73.3
26	RNPS1	2	-0.555	70.8	0.606	67.5
27	RNPS1	3	1.07	103	1.58	75.9
28	P2RX7	1	0.142	84.7	-0.149	98.4
29	P2RX7	2	-0.234	77.2	-0.516	98.9
30	P2RX7	3	-1.85	45	-2.44	95.8
31	NOD2	1	-0.648	69	-1.73	122
32	NOD2	2	0.733	96.5	0.331	98.8
33	NOD2	3	-0.388	74.2	-0.648	98.3
34	PAX8	1	-0.425	73.4	-0.655	97.5
35	PAX8	2	0.259	87	0.517	84.9
36	PAX8	3	-0.572	70.5	0.0676	77.4
37	TYSND1	1	0.17	85.3	-0.0187	95.7
38	TYSND1	2	-0.825	65.5	-1.11	98
39	TYSND1	3	0.318	88.2	0.0732	96.7
40	MAP3K2	1	-0.512	71.7	-0.581	93.4
41	MAP3K2	2	0.347	88.8	-0.292	107
42	MAP3K2	3	-0.00448	81.8	-0.346	100
43	CHAF1B	1	2.03	122	1.14	101
44	CHAF1B	2	1.19	106	1.01	90.5
45	CHAF1B	3	3.14 (active)	144	2	95.1
46	TXNRD1	1	1.11	104	0.34	106
47	TXNRD1	2	-1.05	61	-0.841	85
48	TXNRD1	3	-1.36	54.9	-0.18	64.3
49	SMARCB1	1	-1.54	51.3	-0.536	66
50	SMARCB1	2	-0.675	68.5	1.19	56
51	SMARCB1	3	2.34	128	3.17	62.3
52	CHCHD1	1	-2.85	25.3	-1.81	45.5
53	CHCHD1	2	0.0524	82.9	-0.374	102
54	CHCHD1	3	-1.58	50.4	-1.63	86.3
55	OR56B4	1	-0.744	67.1	-0.272	80.5
56	OR56B4	2	0.527	92.4	0.274	96
57	OR56B4	3	-0.992	62.2	-0.12	71.7
58	GPATCH2	1	-0.614	69.7	-0.521	89.3
59	GPATCH2	2	-0.499	72	-0.386	89
60	GPATCH2	3	0.307	88	-0.0434	99.5
61	MUC20	1	-1.81	45.9	0.255	47.9
62	MUC20	2	0.557	93	0.8	84.1
63	MUC20	3	0.691	95.6	0.277	99.3
64	PLEKHO1	1	0.76	97	0.666	91
65	PLEKHO1	2	-0.596	70	-0.851	97.9
66	PLEKHO1	3	-0.874	64.5	-0.628	85
67	FAM90A1	1	-0.379	74.3	-0.279	89.4
68	FAM90A1	2	0.663	95.1	0.194	101
69	FAM90A1	3	1.94	121	1.53	90
70	CNTN1	1	1.36	109	1.58	80.3
71	CNTN1	2	-0.577	70.4	-0.0351	79.4
72	CNTN1	3	-0.633	69.3	-0.0816	79.1
73	GPR52	1	0.529	92.4	0.876	82
74	GPR52	2	1.35	109	1.47	82.6
75	GPR52	3	-0.185	78.2	0.697	72.7
